PubChem BioAssay AID1159578 | Peter MacCallum Cancer Centre | 2015

Test: 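Genome-wide hunt for genes controlling movement of lymphatic endothelial cells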 (primary screen)
Cell system: human lymphatic endothelial cells
Knock-down reagent: siRNA pool against human genes, 40 nM
Time to read-out: 48 h after transfection
Measured: 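Cells stained with dye and imaged after a scratch; covered wound area and nuclei counted, duplicates averaged, migration set against mock wells and turned into a robust z-score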
Reading the numbers: migration robust z-score: higher = faster migration into the scratch; nuclei per well: higher = more cells in the well
Call rule: 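Migration changed when robust z exceeds 2 or falls below -2 and mean nuclei number is at least 3300; otherwise not called changed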
Meaning of the calls: active = migration changed; inactive = no migration change, or too few cells
This is one part, drawn at random, of about 18,000 reagents tested. About 1,030 of all reagents (5.7%) were called active. 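Inactive calls also include pools with fewer than 3300 nuclei, whose migration was not assessed.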 The raw values are shown without normalisation. Further read-outs or replicates are left out here.

CFC1B (GeneID 653275) → migration robust z-score: -0.33; migration class with cell-count check: migration z between -2 and 2; enough cells; nuclei per well, duplicate mean: 6324; Outcome: inactive
ADA (GeneID 100) → migration robust z-score: -1.04; migration class with cell-count check: migration z between -2 and 2; enough cells; nuclei per well, duplicate mean: 4893; Outcome: inactive
FNBP1L (GeneID 54874) → migration robust z-score: -0.36; migration class with cell-count check: migration z between -2 and 2; enough cells; nuclei per well, duplicate mean: 6028; Outcome: inactive
ZNF599 (GeneID 148103) → migration robust z-score: 0.3; migration class with cell-count check: migration z between -2 and 2; enough cells; nuclei per well, duplicate mean: 6517; Outcome: inactive
DAP3 (GeneID 7818) → migration robust z-score: -0.96; migration class with cell-count check: migration z between -2 and 2; enough cells; nuclei per well, duplicate mean: 4911; Outcome: inactive
EXOSC3 (GeneID 51010) → migration robust z-score: 0.34; migration class with cell-count check: migration z between -2 and 2; enough cells; nuclei per well, duplicate mean: 6426; Outcome: inactive
ARL14 (GeneID 80117) → migration robust z-score: -0.9; migration class with cell-count check: migration z between -2 and 2; enough cells; nuclei per well, duplicate mean: 4046; Outcome: inactive
ARAP3 (GeneID 64411) → migration robust z-score: 1.18; migration class with cell-count check: migration z between -2 and 2; enough cells; nuclei per well, duplicate mean: 5338; Outcome: inactive
NLGN4X (GeneID 57502) → migration robust z-score: -0.03; migration class with cell-count check: migration z between -2 and 2; enough cells; nuclei per well, duplicate mean: 5552; Outcome: inactive
SINHCAF (GeneID 58516) → migration robust z-score: 0.42; migration class with cell-count check: migration z between -2 and 2; enough cells; nuclei per well, duplicate mean: 5499; Outcome: inactive

Quoted from above (4 entries):
DAP3 (GeneID 7818) → migration robust z-score: -0.96; migration class with cell-count check: migration z between -2 and 2; enough cells; nuclei per well, duplicate mean: 4911; Outcome: inactive
EXOSC3 (GeneID 51010) → migration robust z-score: 0.34; migration class with cell-count check: migration z between -2 and 2; enough cells; nuclei per well, duplicate mean: 6426; Outcome: inactive
ARL14 (GeneID 80117) → migration robust z-score: -0.9; migration class with cell-count check: migration z between -2 and 2; enough cells; nuclei per well, duplicate mean: 4046; Outcome: inactive
ARAP3 (GeneID 64411) → migration robust z-score: 1.18; migration class with cell-count check: migration z between -2 and 2; enough cells; nuclei per well, duplicate mean: 5338; Outcome: inactive

Next records:
EIF4A3 (GeneID 9775) → migration robust z-score: -1.92; migration class with cell-count check: migration z between -2 and 2; enough cells; nuclei per well, duplicate mean: 4144; Outcome: inactive
SLC29A1 (GeneID 2030) → migration robust z-score: -0.1; migration class with cell-count check: migration z between -2 and 2; enough cells; nuclei per well, duplicate mean: 4792; Outcome: inactive
CDC14B (GeneID 8555) → migration robust z-score: -0.9; migration class with cell-count check: migration z between -2 and 2; enough cells; nuclei per well, duplicate mean: 5152; Outcome: inactive
C16orf78 (GeneID 123970) → migration robust z-score: -0.06; migration class with cell-count check: migration z between -2 and 2; enough cells; nuclei per well, duplicate mean: 6315; Outcome: inactive
RPL31 (GeneID 6160) → migration robust z-score: -1.64; migration class with cell-count check: migration z between -2 and 2; enough cells; nuclei per well, duplicate mean: 5615; Outcome: inactive
GLDC (GeneID 2731) → migration robust z-score: 0.36; migration class with cell-count check: migration z between -2 and 2; enough cells; nuclei per well, duplicate mean: 6256; Outcome: inactive
ABCC11 (GeneID 85320) → migration robust z-score: -1.76; migration class with cell-count check: migration z between -2 and 2; enough cells; nuclei per well, duplicate mean: 3824; Outcome: inactive
PPP2R2C (GeneID 5522) → migration robust z-score: 0.18; migration class with cell-count check: migration z between -2 and 2; enough cells; nuclei per well, duplicate mean: 7042; Outcome: inactive
DCUN1D5 (GeneID 84259) → migration robust z-score: 0.47; migration class with cell-count check: migration z between -2 and 2; enough cells; nuclei per well, duplicate mean: 5220; Outcome: inactive
PRKD3 (GeneID 23683) → migration robust z-score: -3.82; migration class with cell-count check: migration z below -2; enough cells; nuclei per well, duplicate mean: 3416; Outcome: active
PRSS37 (GeneID 136242) → migration robust z-score: -0.53; migration class with cell-count check: migration z between -2 and 2; enough cells; nuclei per well, duplicate mean: 6742; Outcome: inactive
DEGS1 (GeneID 8560) → migration robust z-score: -0.44; migration class with cell-count check: migration z between -2 and 2; enough cells; nuclei per well, duplicate mean: 5894; Outcome: inactive
H1-5 (GeneID 3009) → migration robust z-score: -2.12; migration class with cell-count check: migration z below -2; enough cells; nuclei per well, duplicate mean: 3422; Outcome: active
S100A12 (GeneID 6283) → migration robust z-score: 0.5; migration class with cell-count check: migration z between -2 and 2; enough cells; nuclei per well, duplicate mean: 5072; Outcome: inactive
NUP85 (GeneID 79902) → migration robust z-score: 0.14; migration class with cell-count check: migration z between -2 and 2; enough cells; nuclei per well, duplicate mean: 6808; Outcome: inactive
CLIP1 (GeneID 6249) → migration robust z-score: -2.2; migration class with cell-count check: migration z below -2; enough cells; nuclei per well, duplicate mean: 5980; Outcome: active
PRPF3 (GeneID 9129) → migration robust z-score: -1.62; migration class with cell-count check: under 3300 nuclei; migration not judged; nuclei per well, duplicate mean: 2876; Outcome: inactive
